Earlier results as cited in US20110086355A1, “BRCA1 mRNA EXPRESSION LEVELS PREDICT SURVIVAL IN BREAST CANCER PATIENTS TREATED WITH NEOADJUVANT CHEMOTHERAPY” (PANGAEA BIOTECH, S.A., priority 2008, published 2011).
Some of these results come from one statement about several compounds together.

System: HCC1937 breast cancer cell line
Details: wild-type BRCA1 reconstituted vs BRCA1-negative HCC1937

Structure (SMILES) | increase in sensitivity to antimicrotubule drugs
CCC1=C[C@@H]2CN(C1)Cc1c([nH]c3ccccc13)[C@@](C(=O)OC)(c1cc3c(cc1OC)N(C)[C@H]1[C@@](O)(C(=O)OC)[C@H](OC(C)=O)[C@]4(CC)C=CCN5CC[C@]31[C@@H]54)C2 [vinorelbine] | 1000-10,000 fold
CC(=O)O[C@H]1C(=O)[C@@]2(C)[C@H]([C@H](OC(=O)c3ccccc3)[C@]3(O)C[C@H](OC(=O)[C@H](O)[C@@H](NC(=O)c4ccccc4)c4ccccc4)C(C)=C1C3(C)C)[C@]1(OC(C)=O)CO[C@@H]1C[C@@H]2O [paclitaxel] | 1000-10,000 fold
